According to publication PMC4392632:

Experiments:
[1] = target: T1, Phaeodactylum tricornutum cyclin-dependent kinase A2 (CDKA2), GAL4 DNA-binding domain fusion (bait) (Phaeodactylum tricornutum) (UniProt B7GDW6); assay: two-hybrid; pairwise Y2H co-transformation of bait (DBD) and prey (AD) plasmids in yeast PJ694-alpha; growth on medium lacking Leu, Trp and His and X-Gal (LacZ) test; three independent colonies
T1 sequence: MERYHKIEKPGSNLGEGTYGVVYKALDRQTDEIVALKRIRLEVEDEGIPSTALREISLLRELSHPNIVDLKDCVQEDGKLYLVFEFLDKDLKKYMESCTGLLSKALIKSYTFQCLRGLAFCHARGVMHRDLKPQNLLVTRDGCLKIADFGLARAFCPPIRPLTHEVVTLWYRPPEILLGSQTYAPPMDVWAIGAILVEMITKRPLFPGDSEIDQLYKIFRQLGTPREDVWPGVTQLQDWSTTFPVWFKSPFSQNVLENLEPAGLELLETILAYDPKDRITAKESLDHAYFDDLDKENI

[2] = target: T1, Phaeodactylum tricornutum cyclin-dependent kinase A2 (CDKA2), GAL4 DNA-binding domain fusion (bait) (Phaeodactylum tricornutum); assay: two-hybrid; Y2H cDNA library screen; bait fused to GAL4 DNA-binding domain in yeast PJ694-alpha, transformed with prey plasmids of a custom-made P. tricornutum cDNA library; selection on SD lacking Leu, Trp and His; at least 10^6 transformants

Row | binding [1] | binding [2] | Substance
1 | binds | binds | Cdc Kinase Subunit 1 (CKS1), prey (AD) fusion (Phaeodactylum tricornutum)
2 | no binding |  | cyclin P6 (CYCP6), prey (AD) fusion (Phaeodactylum tricornutum)

Results are given in words; binding and its absence hold for the method and conditions named. A result given as binding can be weak or reduced; the word gives no strength. Sequences can lack the tags named with a protein.
